In doi:10.1101/2023.11.14.567006:
Results are given in words; binding and its absence hold for the method and conditions named. Binding calls can cover weak binding; strength is not graded here. Where a sequence is shown, tags or fusion partners need not be part of it.

Columns and labels:
[1] = molecular target: SbtB-T25 (C-terminal tagged SbtB) (Synechocystis sp. PCC 6803); experiment: two-hybrid
[2] = molecular target: T25-SbtB (N-terminal tagged SbtB) (Synechocystis sp. PCC 6803); experiment: two-hybrid

Row | Binder | binding [1] | binding [2]
1 | CmpD-T18 (C-terminal tagged CmpD) (protein, UniProt Q55463 1-282) MQTLKSQRAMPTATPSDQKTTAFLTIENVSKVYPTAKGPYTVLENVNLTVNEGEFICVIGHSGCGKSTLLNMVSGFASPTDGSVQVGGKIITEPGPDRMVVFQNYALLPWLTALENVYIAVDAVHSQKTEAEKRAIAKDHLAMVGLTDSMDKKPGQISGGMKQRVSIARALAIRPEVLILDEPFGALDAITKEELQEELLQIWNDHRCTVLMITHDIDEALFLADRLVMMTNGPHANIGEIMTIPFSRPRDRDRIMEDPTYYQLRNYALDFLYNRFAHDDVA | binds | binds
2 | BicA-T18 (C-terminal tagged BicA) (protein, UniProt Q55415 1-564) MQITNKIHFRNLQGDLFGGVTAAVIALPMALAFGIASGAGATAGLWGAVIVGFFAALFGGTPTLISEPTGPMTVVQTAVIASLVAADPDNGLAMAFTVVMMAGLFQIAFGLLKLGKYVTMMPYTVISGFMSGIGIILVILQLAPFLGQASPKGGVIGTLQALPNLVSNVRPVETLLALMTVGIIWFMPSRWKKFAPPQLVALVLGTIISITLFGDLDIRRIGEIQAGLPALQLPVFQADQLQRMLIDAAVLGMLGCIDALLTSVVADSLTRTEHNSNKELVGQGIGNVMSGLFGGLGGAGATMGTVVNIQSGGRTALSGLIRAMVLLVVILGAAKLAATIPLAVLAGIAFKVGVDIIDWGFLKRAHHVSIKGALIMYAVIVLTVLVDLIAAVGIGVFIANILTIDRMSALQSKAVKSISDADDEILLSANEKRWLDEGNGRVLLFQLSGPMIFGVAKAIAREHNAIQECAAIVFDLSDVPHLGVTASLALENAIEEAAEKGRAVYIVGATGQTKRRLEKLQVFRFVPESNCYDDRSEALKDAVLALGPHESEDSPSSSSVQTTY | binds | binds
3 | CmpC-T18 (C-terminal tagged CmpC) (protein, UniProt Q55462 1-667) MSLFVAVDNIDKVFSLTDGGEYIALKGINLEIKKGEFVSLIGHSGCGKSTLLNMIAGLDLPSEGIVTLEGQRIKQPGPDKMVIFQNYSLLPWLTVKQNIALAVDEVMKGASAAERKAIVEEHINLVGLGHAVDKRPGELSGGMKQRVAIARALAIRPKLLLLDEPFGALDALTRGNLQEQLMRICEQYQVTAVMVTHDVDEAVLLSDRIVMLTNGPGSNIGGILEVDIPRPRKRMEVVEHPSYYSLRSEIIYFLNQQKRIKKLRAKKTTAIARHGLEKVNLELGYVPLVACAPLVVAQEKGFFAKHGLDEVSLVRETSWRGIVDGIAGGYLDGAQMPAGMPTWLTAGGYREQSIPVVSALTMTRNGNAITLSKKLYDQGIYTAEDFRQLLLASDGDRHTLGMVHPSSMHNLLLRYWLAAHNINPDRDVHLKTIPPAQMVADLKAGTIDGYCVSEPWNLRASMEGAGFSIATDLEIWQNHPGKVLGVREDWAIAHPNTHVALVKALLEACAYCADPNHEMEIRELLATRQYLSTNIDYIHLGDPEGRTCRLGNPVEYSHHLFFGDQFNRPSRTEHLWMMTQMARWGDIPFPRNWVEILERVCRVGVFSTAARELGYDVNYQRQPIALFDGKVFNADDPIAYLNQTVIHRNFTIAEVHLDNPTPAPVFA | binds | binds
4 | T18-CmpC (N-terminal tagged CmpC) (protein, UniProt Q55462 1-667) MSLFVAVDNIDKVFSLTDGGEYIALKGINLEIKKGEFVSLIGHSGCGKSTLLNMIAGLDLPSEGIVTLEGQRIKQPGPDKMVIFQNYSLLPWLTVKQNIALAVDEVMKGASAAERKAIVEEHINLVGLGHAVDKRPGELSGGMKQRVAIARALAIRPKLLLLDEPFGALDALTRGNLQEQLMRICEQYQVTAVMVTHDVDEAVLLSDRIVMLTNGPGSNIGGILEVDIPRPRKRMEVVEHPSYYSLRSEIIYFLNQQKRIKKLRAKKTTAIARHGLEKVNLELGYVPLVACAPLVVAQEKGFFAKHGLDEVSLVRETSWRGIVDGIAGGYLDGAQMPAGMPTWLTAGGYREQSIPVVSALTMTRNGNAITLSKKLYDQGIYTAEDFRQLLLASDGDRHTLGMVHPSSMHNLLLRYWLAAHNINPDRDVHLKTIPPAQMVADLKAGTIDGYCVSEPWNLRASMEGAGFSIATDLEIWQNHPGKVLGVREDWAIAHPNTHVALVKALLEACAYCADPNHEMEIRELLATRQYLSTNIDYIHLGDPEGRTCRLGNPVEYSHHLFFGDQFNRPSRTEHLWMMTQMARWGDIPFPRNWVEILERVCRVGVFSTAARELGYDVNYQRQPIALFDGKVFNADDPIAYLNQTVIHRNFTIAEVHLDNPTPAPVFA | binds | binds
